The other results are listed elsewhere or left out.

The chains behind the UniProt entries cited, without tags or fusion partners. Where a name states a change or a piece, a line headed by the entry shows the natural chain unless it says otherwise.
UniProt O94876, whole entry: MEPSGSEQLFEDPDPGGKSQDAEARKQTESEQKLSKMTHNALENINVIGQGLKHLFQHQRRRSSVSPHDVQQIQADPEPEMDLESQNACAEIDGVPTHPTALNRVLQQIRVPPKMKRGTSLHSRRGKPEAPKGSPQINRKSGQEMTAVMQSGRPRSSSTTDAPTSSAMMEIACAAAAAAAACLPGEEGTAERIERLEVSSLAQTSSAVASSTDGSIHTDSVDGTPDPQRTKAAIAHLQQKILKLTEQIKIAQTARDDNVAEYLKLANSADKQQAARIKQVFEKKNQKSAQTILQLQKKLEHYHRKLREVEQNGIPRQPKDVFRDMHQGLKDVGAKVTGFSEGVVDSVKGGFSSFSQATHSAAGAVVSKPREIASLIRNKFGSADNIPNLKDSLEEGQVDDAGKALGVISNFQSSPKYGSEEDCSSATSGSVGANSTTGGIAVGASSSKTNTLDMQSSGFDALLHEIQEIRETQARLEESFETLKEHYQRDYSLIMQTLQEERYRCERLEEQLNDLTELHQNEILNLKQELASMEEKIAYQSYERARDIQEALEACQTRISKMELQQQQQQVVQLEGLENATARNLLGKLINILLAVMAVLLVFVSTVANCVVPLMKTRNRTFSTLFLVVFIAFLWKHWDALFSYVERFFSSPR
UniProt Q9C037: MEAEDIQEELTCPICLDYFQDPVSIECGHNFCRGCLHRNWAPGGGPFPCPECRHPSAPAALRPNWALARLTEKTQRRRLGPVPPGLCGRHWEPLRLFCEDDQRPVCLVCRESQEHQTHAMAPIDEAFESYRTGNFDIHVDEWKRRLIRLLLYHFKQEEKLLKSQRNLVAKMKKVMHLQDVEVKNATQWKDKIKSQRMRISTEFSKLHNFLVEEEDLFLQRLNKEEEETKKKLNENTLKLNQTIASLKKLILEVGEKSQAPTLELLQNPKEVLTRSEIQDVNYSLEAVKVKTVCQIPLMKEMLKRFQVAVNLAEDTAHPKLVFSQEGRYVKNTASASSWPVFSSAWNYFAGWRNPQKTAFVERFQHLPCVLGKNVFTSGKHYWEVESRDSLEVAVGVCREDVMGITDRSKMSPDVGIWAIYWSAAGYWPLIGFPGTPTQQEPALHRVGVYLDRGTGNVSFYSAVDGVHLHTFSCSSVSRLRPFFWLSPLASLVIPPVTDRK
UniProt Q9BXS4: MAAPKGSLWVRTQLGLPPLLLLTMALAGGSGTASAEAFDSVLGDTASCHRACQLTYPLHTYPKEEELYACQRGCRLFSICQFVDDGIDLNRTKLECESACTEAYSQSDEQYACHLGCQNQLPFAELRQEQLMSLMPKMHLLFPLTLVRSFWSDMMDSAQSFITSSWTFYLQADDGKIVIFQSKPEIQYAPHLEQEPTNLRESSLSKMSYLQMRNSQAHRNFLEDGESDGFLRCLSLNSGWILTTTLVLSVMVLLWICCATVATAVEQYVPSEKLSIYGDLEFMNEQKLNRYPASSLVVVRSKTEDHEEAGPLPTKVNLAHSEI
UniProt Q99595: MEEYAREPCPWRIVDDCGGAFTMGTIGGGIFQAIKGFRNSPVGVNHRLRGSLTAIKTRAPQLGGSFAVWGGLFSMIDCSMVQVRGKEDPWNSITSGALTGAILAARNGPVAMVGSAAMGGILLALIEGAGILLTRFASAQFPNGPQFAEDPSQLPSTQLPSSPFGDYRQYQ
UniProt P60174, whole entry: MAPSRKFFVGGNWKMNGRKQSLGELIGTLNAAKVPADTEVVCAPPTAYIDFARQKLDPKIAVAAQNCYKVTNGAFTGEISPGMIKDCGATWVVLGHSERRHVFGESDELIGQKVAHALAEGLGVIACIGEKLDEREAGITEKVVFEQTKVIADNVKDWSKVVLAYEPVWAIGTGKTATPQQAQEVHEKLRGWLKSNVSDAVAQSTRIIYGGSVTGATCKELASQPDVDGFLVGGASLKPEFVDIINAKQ
UniProt P52888, whole entry: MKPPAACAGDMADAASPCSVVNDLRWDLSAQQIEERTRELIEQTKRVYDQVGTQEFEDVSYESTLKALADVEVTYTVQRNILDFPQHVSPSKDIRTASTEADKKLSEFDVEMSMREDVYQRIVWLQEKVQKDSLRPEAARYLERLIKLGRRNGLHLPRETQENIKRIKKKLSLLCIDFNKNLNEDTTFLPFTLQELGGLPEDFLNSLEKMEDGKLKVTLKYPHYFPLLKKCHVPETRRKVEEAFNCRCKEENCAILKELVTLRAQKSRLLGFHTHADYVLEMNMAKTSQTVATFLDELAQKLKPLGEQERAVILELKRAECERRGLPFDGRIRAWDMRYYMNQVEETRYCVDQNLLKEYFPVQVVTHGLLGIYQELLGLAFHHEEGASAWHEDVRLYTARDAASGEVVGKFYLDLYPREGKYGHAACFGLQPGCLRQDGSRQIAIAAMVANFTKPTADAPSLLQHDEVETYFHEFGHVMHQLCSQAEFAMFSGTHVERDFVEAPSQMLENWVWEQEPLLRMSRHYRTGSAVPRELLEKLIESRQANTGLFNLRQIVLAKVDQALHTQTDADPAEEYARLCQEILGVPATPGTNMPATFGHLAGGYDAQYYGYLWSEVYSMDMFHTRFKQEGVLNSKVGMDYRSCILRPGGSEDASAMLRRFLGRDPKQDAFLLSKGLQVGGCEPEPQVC
UniProt O60830: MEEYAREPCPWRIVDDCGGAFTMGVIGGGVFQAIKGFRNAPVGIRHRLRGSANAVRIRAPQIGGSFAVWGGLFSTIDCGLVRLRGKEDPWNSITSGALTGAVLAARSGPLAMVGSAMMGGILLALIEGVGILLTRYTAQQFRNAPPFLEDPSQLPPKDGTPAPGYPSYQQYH
UniProt Q8NE00: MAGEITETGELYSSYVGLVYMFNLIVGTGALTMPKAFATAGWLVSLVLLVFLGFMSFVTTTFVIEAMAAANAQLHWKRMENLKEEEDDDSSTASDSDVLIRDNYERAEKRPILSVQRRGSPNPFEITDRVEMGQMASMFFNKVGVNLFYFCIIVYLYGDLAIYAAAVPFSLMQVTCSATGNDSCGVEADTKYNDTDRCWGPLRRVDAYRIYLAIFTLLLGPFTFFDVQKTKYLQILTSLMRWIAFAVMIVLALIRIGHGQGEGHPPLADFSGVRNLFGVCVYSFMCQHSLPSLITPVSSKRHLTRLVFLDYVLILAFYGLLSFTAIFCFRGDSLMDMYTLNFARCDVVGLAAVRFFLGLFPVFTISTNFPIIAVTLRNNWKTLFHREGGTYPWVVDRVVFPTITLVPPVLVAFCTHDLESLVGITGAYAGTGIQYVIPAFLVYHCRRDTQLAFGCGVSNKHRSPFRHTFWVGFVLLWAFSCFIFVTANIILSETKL
UniProt O94759, whole entry: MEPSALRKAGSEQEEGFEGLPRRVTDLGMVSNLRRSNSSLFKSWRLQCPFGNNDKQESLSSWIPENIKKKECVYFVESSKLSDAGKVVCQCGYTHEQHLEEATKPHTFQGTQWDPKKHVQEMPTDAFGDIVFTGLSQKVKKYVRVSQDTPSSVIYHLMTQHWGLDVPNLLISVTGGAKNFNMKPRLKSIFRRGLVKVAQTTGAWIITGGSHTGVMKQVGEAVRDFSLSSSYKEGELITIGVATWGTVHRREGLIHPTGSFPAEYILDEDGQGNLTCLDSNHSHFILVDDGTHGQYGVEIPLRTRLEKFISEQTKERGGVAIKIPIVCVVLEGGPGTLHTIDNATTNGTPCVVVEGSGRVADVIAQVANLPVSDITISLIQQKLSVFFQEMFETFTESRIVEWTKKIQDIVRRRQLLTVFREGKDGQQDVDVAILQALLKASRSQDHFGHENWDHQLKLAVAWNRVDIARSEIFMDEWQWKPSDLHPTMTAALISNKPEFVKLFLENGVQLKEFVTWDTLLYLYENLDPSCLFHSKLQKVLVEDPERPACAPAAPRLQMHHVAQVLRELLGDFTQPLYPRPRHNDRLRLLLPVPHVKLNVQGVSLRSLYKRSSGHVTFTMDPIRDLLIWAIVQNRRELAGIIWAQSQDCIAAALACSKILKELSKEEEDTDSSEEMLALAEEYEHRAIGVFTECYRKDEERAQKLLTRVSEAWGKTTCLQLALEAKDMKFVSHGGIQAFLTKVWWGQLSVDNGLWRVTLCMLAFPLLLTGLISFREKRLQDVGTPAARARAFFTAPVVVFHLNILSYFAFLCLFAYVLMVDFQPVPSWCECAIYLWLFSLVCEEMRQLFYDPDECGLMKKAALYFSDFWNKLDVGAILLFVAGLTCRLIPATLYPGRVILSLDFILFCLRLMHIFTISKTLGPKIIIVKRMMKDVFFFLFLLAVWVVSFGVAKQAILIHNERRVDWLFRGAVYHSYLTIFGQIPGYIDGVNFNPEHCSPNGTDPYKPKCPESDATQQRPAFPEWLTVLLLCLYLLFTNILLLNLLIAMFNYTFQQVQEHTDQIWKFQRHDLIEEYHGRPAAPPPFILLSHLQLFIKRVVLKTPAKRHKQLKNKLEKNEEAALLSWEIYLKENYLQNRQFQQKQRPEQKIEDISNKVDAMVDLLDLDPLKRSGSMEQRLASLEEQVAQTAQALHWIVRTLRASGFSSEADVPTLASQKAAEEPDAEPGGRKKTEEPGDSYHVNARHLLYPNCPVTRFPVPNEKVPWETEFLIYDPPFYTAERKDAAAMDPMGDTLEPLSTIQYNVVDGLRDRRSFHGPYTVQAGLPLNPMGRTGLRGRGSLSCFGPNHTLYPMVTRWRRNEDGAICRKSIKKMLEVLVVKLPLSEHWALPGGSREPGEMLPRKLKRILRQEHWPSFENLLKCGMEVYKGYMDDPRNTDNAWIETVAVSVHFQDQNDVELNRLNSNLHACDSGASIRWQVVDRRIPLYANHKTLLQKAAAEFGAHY
UniProt Q15025: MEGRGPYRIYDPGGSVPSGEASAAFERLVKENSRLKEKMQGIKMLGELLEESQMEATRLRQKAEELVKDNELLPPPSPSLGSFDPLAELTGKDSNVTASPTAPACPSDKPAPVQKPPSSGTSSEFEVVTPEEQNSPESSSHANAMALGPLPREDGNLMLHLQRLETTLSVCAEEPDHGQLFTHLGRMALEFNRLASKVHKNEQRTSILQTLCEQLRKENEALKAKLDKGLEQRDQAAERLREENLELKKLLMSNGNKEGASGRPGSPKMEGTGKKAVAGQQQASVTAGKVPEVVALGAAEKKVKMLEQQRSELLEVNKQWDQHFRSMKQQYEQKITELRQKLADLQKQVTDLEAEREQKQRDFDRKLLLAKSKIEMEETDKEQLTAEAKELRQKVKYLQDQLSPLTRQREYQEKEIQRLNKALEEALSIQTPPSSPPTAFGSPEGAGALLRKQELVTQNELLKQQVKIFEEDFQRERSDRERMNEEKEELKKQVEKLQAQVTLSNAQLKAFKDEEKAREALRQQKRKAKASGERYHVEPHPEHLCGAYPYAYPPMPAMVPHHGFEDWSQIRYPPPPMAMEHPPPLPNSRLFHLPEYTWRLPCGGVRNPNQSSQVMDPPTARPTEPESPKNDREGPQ
UniProt Q15650: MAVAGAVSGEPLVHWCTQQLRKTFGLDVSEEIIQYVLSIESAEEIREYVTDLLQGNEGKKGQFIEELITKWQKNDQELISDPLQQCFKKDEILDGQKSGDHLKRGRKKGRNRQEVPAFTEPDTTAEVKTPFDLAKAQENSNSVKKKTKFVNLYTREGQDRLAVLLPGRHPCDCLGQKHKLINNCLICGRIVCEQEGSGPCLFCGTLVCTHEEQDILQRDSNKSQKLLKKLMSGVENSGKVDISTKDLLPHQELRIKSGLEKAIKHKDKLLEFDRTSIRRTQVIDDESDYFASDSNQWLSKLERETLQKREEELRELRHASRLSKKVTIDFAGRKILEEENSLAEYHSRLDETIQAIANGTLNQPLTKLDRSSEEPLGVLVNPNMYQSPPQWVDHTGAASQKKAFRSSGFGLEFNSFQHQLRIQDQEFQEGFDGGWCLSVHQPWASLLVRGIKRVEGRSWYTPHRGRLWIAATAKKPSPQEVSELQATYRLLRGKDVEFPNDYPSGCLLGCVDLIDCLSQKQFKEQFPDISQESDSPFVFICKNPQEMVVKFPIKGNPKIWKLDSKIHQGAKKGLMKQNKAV
UniProt A5PLL7: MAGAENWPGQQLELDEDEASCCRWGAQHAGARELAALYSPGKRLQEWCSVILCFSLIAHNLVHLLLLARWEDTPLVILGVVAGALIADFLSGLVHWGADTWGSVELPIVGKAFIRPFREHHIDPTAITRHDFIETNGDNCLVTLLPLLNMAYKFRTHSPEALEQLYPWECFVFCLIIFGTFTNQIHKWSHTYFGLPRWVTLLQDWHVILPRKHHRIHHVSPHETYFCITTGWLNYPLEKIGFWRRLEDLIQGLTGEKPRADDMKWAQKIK
UniProt Q16762: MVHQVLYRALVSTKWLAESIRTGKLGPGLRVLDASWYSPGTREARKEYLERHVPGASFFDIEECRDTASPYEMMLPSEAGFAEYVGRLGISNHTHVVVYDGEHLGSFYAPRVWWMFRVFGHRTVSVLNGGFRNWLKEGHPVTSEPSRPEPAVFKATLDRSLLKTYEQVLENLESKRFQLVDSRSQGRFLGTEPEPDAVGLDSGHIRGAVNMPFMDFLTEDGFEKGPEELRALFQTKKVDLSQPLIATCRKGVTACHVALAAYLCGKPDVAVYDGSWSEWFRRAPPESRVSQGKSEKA

Compound in the assay: COc1ccc(Cn2ccc3cc(C)c(C(=O)NO)cc32)cc1
As to the kind of experiment: dose-dependent thermal stabilisation call (2D-TPP, DLPTP, 10% FDR) (binary (1 = stabilised)); higher = stabilised by the compound. Particulars: system: HL-60 intact cells; concentration range 0.04-10 µM. The procedure: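 2D thermal proteome profiling in intact HL-60 cells treated with BRD-3811 (0, 0.04, 0.29, 2, 10 uM) for 90 min at 37 C, then heated 3 min at one of 12 temperatures (42-63.9 C). Soluble protein was quantified by TMT10 MS. The value is the DLPTP call of the paper: dose-dependent thermal stabilisation over all temperatures at 10% FDR (F-test of a dose-response against a flat model); one experiment, one call per tested protein.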
For the target TMCC1 (UniProt O94876), the “dose-dependent thermal stabilisation call” value is inactive: 0. Under TMCO6 (UniProt Q96DC7) stands inactive: 0; under TRIM4 (UniProt Q9C037), inactive: 0.

In the case of TMEM192 (UniProt Q8IY95), the “dose-dependent thermal stabilisation call” value is inactive: 0. THOC2 (UniProt Q8NI27): the “dose-dependent thermal stabilisation call” value is inactive: 0.

For the target TSPO, the “dose-dependent thermal stabilisation call” value was inactive: 0. Under TRAP1 (UniProt Q12931) stands inactive: 0. As to TMEM59 (UniProt Q9BXS4), the “dose-dependent thermal stabilisation call” value is inactive: 0. Under TKT (UniProt P29401) stands inactive: 0.

As to TRABD (UniProt Q9H4I3), the “dose-dependent thermal stabilisation call” value is inactive: 0. Under TIMM17A (UniProt Q99595) stands inactive: 0.

On to TIPIN (UniProt Q9BVW5), for which the “dose-dependent thermal stabilisation call” value is inactive: 0. The value for TPI1 (UniProt P60174) was inactive: 0; that for TMEM165 (UniProt Q9HC07) was inactive: 0. Take TIMM8A (UniProt O60220): the “dose-dependent thermal stabilisation call” value was inactive: 0.

For the target TMEM97 (UniProt Q5BJF2), the “dose-dependent thermal stabilisation call” value was inactive: 0. As to TMEM38B (UniProt Q9NVV0), the “dose-dependent thermal stabilisation call” value was inactive: 0. Turning to TIMM44 (UniProt O43615), the “dose-dependent thermal stabilisation call” value was inactive: 0. The value for TMOD3 (UniProt Q9NYL9) was inactive: 0.

For the target TRIM38 (UniProt O00635), the “dose-dependent thermal stabilisation call” value is inactive: 0. Under TMED5 (UniProt Q9Y3A6) stands inactive: 0; under TMEM184B (UniProt Q9Y519), inactive: 0; under THOP1 (UniProt P52888), inactive: 0.

Consider TIMM17B (UniProt O60830), for which the “dose-dependent thermal stabilisation call” value is inactive: 0. Regarding TMEM104 (UniProt Q8NE00), the “dose-dependent thermal stabilisation call” value is inactive: 0. For the target TRPM2 (UniProt O94759), the “dose-dependent thermal stabilisation call” value was inactive: 0. TRIM44 (UniProt Q96DX7): the “dose-dependent thermal stabilisation call” value was inactive: 0.

Take TNIP1 (UniProt Q15025): the “dose-dependent thermal stabilisation call” value was inactive: 0. The value for TK1 (UniProt P04183) was inactive: 0; that for TRIP4 (UniProt Q15650) was inactive: 0; that for TSC2 (UniProt P49815) was inactive: 0. The value for TTC19 (UniProt Q6DKK2) was inactive: 0. Under TNFAIP3 (UniProt P21580) stands inactive: 0. As to TMBIM6 (UniProt P55061), the “dose-dependent thermal stabilisation call” value was inactive: 0. The value for TMEM189-UBE2V1 (UniProt A5PLL7) was inactive: 0. In the case of TST (UniProt Q16762), the “dose-dependent thermal stabilisation call” value is inactive: 0.

The values above are taken from the supplement of paper PMC7666118.
